We go through one compound from US11554373B2 (priority 2016, dated 2023).

Data set [1] deals with primary human hepatocytes. Kind of data set: Urea production by hepatocytes. Type of data set: cell-based. The conditions noted are these: 50 uM amiodarone; time course of the experiment.
The test system of data set [2] is primary human hepatocytes. Kind of data set: Albumin production by hepatocytes (ELISA). The class given is cell-based. As to conditions: 50 uM amiodarone.
Data set [3] concerns primary human hepatocytes. As to conditions: 50 uM amiodarone; in the presence of THP-1 cells; day 7.

Structures can show the parent of a compound that is named as a salt.

Take `CCCCc1oc2ccccc2c1C(=O)c1cc(I)c(OCCN(CC)CC)c(I)c1` [amiodarone, Amiodarone hydrochloride]: in data set [1], the urea production result is “unaffected”. For the same compound, the albumin production result in data set [2] (days 5 and 7) was “negatively affected”. Moreover, the “albumin production effect with addition of THP-1 cells” value in data set [2] (with THP-1 cells) is on record as “more pronounced”. Further, in data set [3], the liver viability result is “significantly reduces”.
